Hit rate of the full screen: of about 290,000 compounds, about 110 (0.038%) were called active. Inconclusive results, whose numbers are uncertain, are shown with a selection of clear calls. The call rests on the fitted dose curve; in most records, active means well fitted inhibition curve with a large enough effect in the polarisation, with a control signal flat (not every such curve was filed as active); inconclusive means small, poorly fitted or top-dose-only effect, or effect the other way, or a change in a side signal; inactive means no such curve, though single readings can be large or run the other way; the % refers to the polarisation. Where the call is inconclusive, the potency comes from a doubtful curve fit. A note “side channel” means that the fit belongs to a control or component signal, not to the main read-out.
target: Histone-lysine N-methyltransferase 2A (Homo sapiens) (UniProt Q03164); assay: qHTS Fluorescence Polarization Assay for Inhibitors of MLL CXXC domain - DNA interaction; conditions: MLL-CXXC / FITC-HOXA9 DNA fluorescence polarization; activity change, negative = inhibition: at 115 µM (top of the series)
Summary of the method: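 Steps: dispense CXXC domain solution (7 uM) → pin compounds or unlabeled HOX-A9 DNA control → 5 min ambient → add FLSN-HOX-A9 solution (50 nM) → spin → 30 min ambient → fluorescence polarization. Tris pH 7.5/NaCl/DTT/BSA buffer.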
Potency means the concentration at half of the fitted maximal effect.

Chains of the proteins cited; added tags and fusions are not shown.
UniProt Q03164, whole entry, looked up: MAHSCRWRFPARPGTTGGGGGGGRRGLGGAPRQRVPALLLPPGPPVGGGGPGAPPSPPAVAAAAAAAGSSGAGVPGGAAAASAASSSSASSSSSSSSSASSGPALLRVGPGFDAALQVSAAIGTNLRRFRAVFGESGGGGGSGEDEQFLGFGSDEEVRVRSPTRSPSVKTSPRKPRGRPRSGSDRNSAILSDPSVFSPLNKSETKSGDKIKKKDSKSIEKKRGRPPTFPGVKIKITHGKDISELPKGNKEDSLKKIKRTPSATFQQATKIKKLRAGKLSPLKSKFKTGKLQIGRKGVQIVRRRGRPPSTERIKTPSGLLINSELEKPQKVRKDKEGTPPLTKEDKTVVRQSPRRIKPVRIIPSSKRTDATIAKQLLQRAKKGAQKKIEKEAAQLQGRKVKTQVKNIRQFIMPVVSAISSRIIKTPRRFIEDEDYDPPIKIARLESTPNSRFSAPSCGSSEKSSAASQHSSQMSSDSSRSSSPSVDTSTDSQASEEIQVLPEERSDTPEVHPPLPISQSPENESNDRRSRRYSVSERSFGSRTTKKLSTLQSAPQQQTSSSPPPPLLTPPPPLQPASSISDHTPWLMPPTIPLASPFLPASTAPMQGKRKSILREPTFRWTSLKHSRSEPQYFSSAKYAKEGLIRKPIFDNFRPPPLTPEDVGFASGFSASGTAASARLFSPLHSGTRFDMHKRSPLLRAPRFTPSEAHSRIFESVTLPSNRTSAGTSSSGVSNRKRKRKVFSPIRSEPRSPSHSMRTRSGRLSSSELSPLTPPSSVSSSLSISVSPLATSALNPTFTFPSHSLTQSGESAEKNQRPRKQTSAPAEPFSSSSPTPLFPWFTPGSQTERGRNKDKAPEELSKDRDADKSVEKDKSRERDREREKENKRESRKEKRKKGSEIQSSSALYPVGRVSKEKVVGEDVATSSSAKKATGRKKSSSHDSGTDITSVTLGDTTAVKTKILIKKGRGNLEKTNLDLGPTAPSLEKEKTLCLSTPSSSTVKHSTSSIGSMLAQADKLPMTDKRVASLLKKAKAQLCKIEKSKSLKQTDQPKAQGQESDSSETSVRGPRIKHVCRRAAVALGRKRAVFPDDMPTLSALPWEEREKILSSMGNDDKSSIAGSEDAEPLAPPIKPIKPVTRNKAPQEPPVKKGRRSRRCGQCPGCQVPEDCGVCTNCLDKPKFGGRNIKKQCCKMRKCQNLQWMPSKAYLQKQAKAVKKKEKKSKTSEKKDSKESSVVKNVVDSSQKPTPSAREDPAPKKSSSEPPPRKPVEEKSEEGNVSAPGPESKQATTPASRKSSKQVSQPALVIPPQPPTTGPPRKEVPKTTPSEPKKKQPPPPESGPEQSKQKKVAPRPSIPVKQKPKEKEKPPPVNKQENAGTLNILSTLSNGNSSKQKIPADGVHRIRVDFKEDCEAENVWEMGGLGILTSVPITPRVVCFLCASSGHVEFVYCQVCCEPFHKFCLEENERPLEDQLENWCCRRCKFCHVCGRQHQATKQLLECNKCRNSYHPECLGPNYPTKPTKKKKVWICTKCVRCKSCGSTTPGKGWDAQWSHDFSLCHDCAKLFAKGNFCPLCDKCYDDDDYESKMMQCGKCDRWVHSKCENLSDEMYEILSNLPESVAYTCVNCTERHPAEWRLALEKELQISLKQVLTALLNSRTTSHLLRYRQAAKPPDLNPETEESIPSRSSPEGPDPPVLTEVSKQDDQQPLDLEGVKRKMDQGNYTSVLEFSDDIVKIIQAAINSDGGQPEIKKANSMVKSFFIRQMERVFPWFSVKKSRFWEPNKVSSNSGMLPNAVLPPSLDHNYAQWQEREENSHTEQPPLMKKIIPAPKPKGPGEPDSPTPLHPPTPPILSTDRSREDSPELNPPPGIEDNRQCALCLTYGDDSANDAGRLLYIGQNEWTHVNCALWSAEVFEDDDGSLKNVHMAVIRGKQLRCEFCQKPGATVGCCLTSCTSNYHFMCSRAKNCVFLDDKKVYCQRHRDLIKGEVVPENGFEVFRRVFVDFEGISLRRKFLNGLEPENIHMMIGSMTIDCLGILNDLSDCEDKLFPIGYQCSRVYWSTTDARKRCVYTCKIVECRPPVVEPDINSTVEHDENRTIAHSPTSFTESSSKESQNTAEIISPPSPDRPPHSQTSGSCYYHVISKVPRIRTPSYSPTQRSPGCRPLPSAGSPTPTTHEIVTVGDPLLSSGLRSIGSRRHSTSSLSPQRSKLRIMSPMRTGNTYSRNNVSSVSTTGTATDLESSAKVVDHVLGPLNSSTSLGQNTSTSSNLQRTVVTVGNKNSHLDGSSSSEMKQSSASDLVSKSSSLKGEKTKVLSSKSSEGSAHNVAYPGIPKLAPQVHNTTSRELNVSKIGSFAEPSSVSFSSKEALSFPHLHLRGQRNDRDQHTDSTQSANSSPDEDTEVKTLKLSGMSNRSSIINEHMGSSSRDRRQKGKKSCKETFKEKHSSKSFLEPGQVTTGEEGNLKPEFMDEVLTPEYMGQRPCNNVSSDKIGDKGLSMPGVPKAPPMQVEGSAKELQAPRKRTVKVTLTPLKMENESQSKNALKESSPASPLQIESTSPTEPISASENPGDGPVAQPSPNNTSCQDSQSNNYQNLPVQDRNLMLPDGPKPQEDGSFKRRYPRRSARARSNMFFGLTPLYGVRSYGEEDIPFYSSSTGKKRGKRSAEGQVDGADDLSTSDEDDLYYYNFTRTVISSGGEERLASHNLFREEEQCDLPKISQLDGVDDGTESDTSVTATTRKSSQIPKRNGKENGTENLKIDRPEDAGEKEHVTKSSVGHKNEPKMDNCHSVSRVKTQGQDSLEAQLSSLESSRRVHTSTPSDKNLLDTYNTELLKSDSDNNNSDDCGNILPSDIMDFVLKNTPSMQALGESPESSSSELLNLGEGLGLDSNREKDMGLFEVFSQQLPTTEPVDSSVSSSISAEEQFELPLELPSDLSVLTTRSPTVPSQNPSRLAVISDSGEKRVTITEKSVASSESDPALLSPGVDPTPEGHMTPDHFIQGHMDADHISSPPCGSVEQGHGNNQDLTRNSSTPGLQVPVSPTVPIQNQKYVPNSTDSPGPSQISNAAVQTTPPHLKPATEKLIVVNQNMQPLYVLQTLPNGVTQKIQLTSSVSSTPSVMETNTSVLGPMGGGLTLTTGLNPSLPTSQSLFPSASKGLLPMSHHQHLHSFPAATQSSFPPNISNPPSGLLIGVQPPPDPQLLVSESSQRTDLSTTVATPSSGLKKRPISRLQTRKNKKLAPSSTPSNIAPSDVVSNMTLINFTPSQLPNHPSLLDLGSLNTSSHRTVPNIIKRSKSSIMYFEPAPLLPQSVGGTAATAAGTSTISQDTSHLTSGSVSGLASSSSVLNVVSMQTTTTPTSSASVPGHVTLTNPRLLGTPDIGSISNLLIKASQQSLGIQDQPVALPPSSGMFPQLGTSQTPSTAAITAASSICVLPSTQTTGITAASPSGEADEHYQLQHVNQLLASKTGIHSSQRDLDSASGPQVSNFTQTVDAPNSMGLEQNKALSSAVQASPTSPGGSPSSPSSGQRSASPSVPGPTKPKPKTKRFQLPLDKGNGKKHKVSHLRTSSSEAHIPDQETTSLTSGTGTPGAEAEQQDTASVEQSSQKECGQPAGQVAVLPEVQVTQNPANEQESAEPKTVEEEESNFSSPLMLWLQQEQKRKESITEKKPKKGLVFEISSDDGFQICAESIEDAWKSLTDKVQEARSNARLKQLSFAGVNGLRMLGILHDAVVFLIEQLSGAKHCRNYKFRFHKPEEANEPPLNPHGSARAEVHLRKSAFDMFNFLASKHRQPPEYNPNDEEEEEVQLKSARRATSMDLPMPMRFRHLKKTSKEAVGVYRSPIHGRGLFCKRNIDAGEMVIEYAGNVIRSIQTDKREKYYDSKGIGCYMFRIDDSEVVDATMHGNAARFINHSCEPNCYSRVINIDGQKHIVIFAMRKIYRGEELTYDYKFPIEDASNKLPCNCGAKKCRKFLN

| SMILES | Potency | activity change, negative = inhibition |
| --- | --- | --- |
| CN(CC1CCCO1)S(=O)(=O)c1ccc(C(=O)Nc2ccc([N+](=O)[O-])cc2)cc1 (centres undefined) | inconclusive: 8.91 µM [quencher, side channel, partial curve] | – |
| Cc1c(-c2ccccc2)c(P(=O)(N2CCOCC2)N2CCOCC2)c2ccccn12 | inconclusive: 15.8 µM [quencher, side channel, single point] | – |
| COc1ccc(NC(=O)C(c2ccc(Cl)cc2)C(C)C)cn1 (centres undefined) | inconclusive: 28.2 µM [fluorescent, side channel, partial curve] | – |
| O=C(O)CNC(=O)c1ccc2c(c1)OCCO2 | – | inactive: -3.82% |
| COC(=O)c1cc2c(C)c(C)c3ccccn3c-2c1C(=O)OC | inconclusive: 63.1 µM [fluorescent, side channel, single point] | – |
| Cc1ccc(NC(=O)COC(=O)C2CC2C)c(S(=O)(=O)N2CCCCC2)c1 (centres undefined) | inconclusive: 1 µM [fluorescent, side channel, full curve] | – |
| CN(C)c1cncc(C(=O)O)c1 | inconclusive: 112 µM [fluorescent, side channel, partial curve, poor fit] | – |
| Cc1nc(CNC(=O)C2CCC(=O)N(Cc3cccc(F)c3)C2)sc1C (centres undefined) | – | inconclusive: 8.5% [phenotype inactive] |
| CCOc1ccc2[nH]c3c(c2c1)CNCC3 | inconclusive: 89.1 µM [quencher, side channel, single point] | – |
| CCOC(=O)N1CCC(n2c(SCC(=O)N3CCC(C)CC3)nc3ccccc3c2=O)CC1 | – | inactive: 3.64% |
| Oc1ccc(-c2cnns2)c(O)c1 | – | inactive: 0.516% |
| Cc1ccc(SCCNC(=O)c2ccc(CN3CCOCC3)cc2)cc1 | – | inactive: 4.94% |
| COc1ccc(Cl)cc1N(CC(=O)N/N=C/c1ccc(OC(C)C)cc1)S(=O)(=O)c1ccc(C)c([N+](=O)[O-])c1 | inconclusive: 1 µM [fluorescent, side channel, full curve, poor fit] | – |
| CCOC(=O)CCCCCN(Cc1ccccc1)S(=O)(=O)c1ccc([N+](=O)[O-])cc1 | inconclusive: 12.6 µM [quencher, side channel, single point] | – |
| COc1cc(/C=C/c2cccc[n+]2C)ccc1OCC(=O)Nc1cccc(Cl)c1 | inconclusive: 89.1 µM [quencher, side channel, single point] | – |
| O=C(NNC(=S)Nc1cccc(C(F)(F)F)c1)c1cccc(Cl)c1 | – | inactive: 3.79% |
| Cc1ccccc1OCc1nc2ccccc2c(=O)n1/N=C/c1cccc([N+](=O)[O-])c1 | inconclusive: 22.4 µM [fluorescent, side channel, partial curve, poor fit] | – |
| COc1ccc(NC(=O)/C=C/C(=O)O)cc1Cl | – | inactive: -3.97% |
| Cc1ccccc1C(=O)NC(=S)Nc1ccccc1N1CCCC1 | inconclusive: 25.1 µM [inhibitor, partial curve, poor fit] | – |
| O=C(O)c1cccc(NC(=O)c2cc(NC(=O)c3ccccc3)cc(NC(=O)c3ccccc3)c2)c1 | inconclusive: 31.6 µM [inhibitor, single point] | – |
| Cc1cccc(OC(C)C(=O)Nc2ccc(S(=O)(=O)N3CCCC3)cc2)c1 (centres undefined) | – | inactive: 4.78% |
| CSc1ccc(CN2CCC(N3CC(C)OC(C)C3)CC2)cc1 (centres undefined) | – | inactive: -7.82% |

| SMILES | Potency | activity change, negative = inhibition |
| --- | --- | --- |
| CCOC(=S)SCC(=O)N1CCc2cc(OC)ccc2C1C1C(=O)CCCC1=O (centres undefined) | inconclusive: 56.2 µM [inhibitor, single point] | – |
| O=C(Nc1ccc([N+](=O)[O-])cc1)Nc1nc(-c2ccc(Cl)s2)cs1 | inconclusive: 11.2 µM [fluorescent, side channel, partial curve] | – |
| COc1ccc(OC)c(NC(=O)c2sc3nc(Cc4ccccc4)cc(C(F)(F)F)c3c2N)c1 | inconclusive: 56.2 µM [fluorescent, side channel, single point] | – |
| CCC1(C)N=C(N)Nc2nc3cc(C)c(C)cc3n21 (centres undefined) | inconclusive: 14.1 µM [inhibitor, single point] | – |
| NNC(=O)c1cc2ccccc2cc1NS(=O)(=O)c1ccccc1 | – | inactive: -8.11% |
| CCCn1nc(C(=O)Nc2ccc(S(=O)(=O)Nc3nccs3)cc2)c2ccccc2c1=O | inconclusive: 31.6 µM [fluorescent, side channel, single point] | – |
| Cc1c(C(=O)N(C)c2cccc(Cl)c2)cnn1-c1ccccc1 | inconclusive: 70.8 µM [inhibitor, single point] | – |
| Cc1ccccc1N1CC(C(=O)Nc2nnc(SCCC3OCCO3)s2)CC1=O (centres undefined) | inconclusive: 14.1 µM [fluorescent, side channel, single point] | – |
| C/C(=N/NC(=O)CNC(=O)Cc1ccccc1)c1ccco1 | inconclusive: 11.2 µM [quencher, side channel, full curve, poor fit] | – |
| Cn1cccc1/C=C1\CCC/C(=C\c2cccn2C)C1=O | inconclusive: 10 µM [fluorescent, side channel, full curve] | – |
| COc1cc(/C=N/N2CCN(c3ccccc3OC)CC2)ccc1OC(C)=O | – | inactive: 1.1% |
| N#Cc1cc(-c2ccccc2)c[nH]c1=O | – | inactive: 1.97% |
| O=C(COC(=O)/C=C/c1ccc(F)cc1)Nc1cccc(S(=O)(=O)N2CCCC2)c1 | inconclusive: 70.8 µM [fluorescent, side channel, single point] | – |
| COc1cccc(C(=O)Nc2ccc(C(=O)c3ccncc3)cc2)c1 | inconclusive: 70.8 µM [quencher, side channel, single point] | – |
| Cc1noc(C)c1C(=O)NCCc1ccc(S(N)(=O)=O)cc1 | inconclusive: 14.1 µM [quencher, side channel, single point] | – |
| O=C(Nc1nc(-c2ccccn2)cs1)c1ccc(Br)s1 | – | inactive: 29% |
| COC(=O)C(Cc1ccccc1)NC(=O)c1ccc(C)cc1 (centres undefined) | – | inactive: 2.67% |
| Cc1ccc(NC(=O)CSc2nn3c(=O)c(C)nnc3s2)cc1Cl | – | inactive: 4.2% |
| COc1ccc2nc3cc(Cl)ccc3c(Nc3cc(C(C)C)c(O)cc3C)c2c1 | inconclusive: 35.5 µM [quencher, side channel, partial curve] | – |
| O=C(N/N=C/c1sc(=O)[nH]c1-[n+]1ccccc1)c1ccccc1[O-] | inconclusive: 35.5 µM [inhibitor, partial curve] | – |
| COc1ccccc1N1C(=O)C2CCC(c3ccccc3)CC2C1=O (centres undefined) | – | inactive: 2.46% |
| CCc1nc(N[C@H](C(=O)O)C(C)C)c2oc3ccccc3c2n1 | inconclusive: 100 µM [inhibitor, partial curve, poor fit] | – |

Structures shown so far containing a furan ring, fused or not (2):

| SMILES | Potency | activity change, negative = inhibition |
| --- | --- | --- |
| C/C(=N/NC(=O)CNC(=O)Cc1ccccc1)c1ccco1 | inconclusive: 11.2 µM [quencher, side channel, full curve, poor fit] | – |
| CCc1nc(N[C@H](C(=O)O)C(C)C)c2oc3ccccc3c2n1 | inconclusive: 100 µM [inhibitor, partial curve, poor fit] | – |

The list continues:

| SMILES | Potency | activity change, negative = inhibition |
| --- | --- | --- |
| CC(C)C[C@@H](N)C(=O)O | – | inactive: -2.82% |
| O=C(O)CCCn1cc(NC(=O)COc2ccccc2F)cn1 | inconclusive: 10 µM [fluorescent, side channel, full curve] | – |
| CC(=O)Oc1ccc(N2C(=O)C3C4C=CC(CO)(O4)C3C2=O)cc1 (centres undefined) | – | inactive: -8.11% |
| Cn1c(SCC(=O)N=Nc2c(O)[nH]c3ccccc23)nc2ccccc21 | inconclusive: 7.08 µM [inhibitor, full curve] | – |
| O=C(O)c1ccccc1C1=Nc2ccc(O)cc2Oc2cc(O)ccc21 | inconclusive: 39.8 µM [fluorescent, side channel, partial curve] | – |
| O=C(CCN1C(=O)c2ccccc2S1(=O)=O)Nc1ccccc1 | inconclusive: 89.1 µM [inhibitor, single point] | – |
| COc1ccc(-c2c(NC(C)=O)n(C)c3ccccc3c2=O)cc1 | inconclusive: 3.16 µM [inhibitor, full curve] | – |
| CCN(CC)CCCNC(=S)N(Cc1cccs1)Cc1cc2cc3c(cc2[nH]c1=O)OCCO3 | inconclusive: 89.1 µM [quencher, side channel, single point] | – |
| Cc1ccc(C(=O)CCC(=O)NC2CCCC(C)C2C)cc1 (centres undefined) | inconclusive: 14.1 µM [fluorescent, side channel, single point] | – |
| COc1cc(/C=C/C(=O)O)cc(S(=O)(=O)NCCCO)c1OC | – | inactive: 4.01% |
| COc1ccc(CCNC(=O)CSc2nnc(CNc3ccc(Cl)cc3)o2)cc1OC | inconclusive: 10 µM [quencher, side channel, full curve] | – |
| COc1ccc(CN2CCNC(=O)C2CC(=O)NCCCC2CCCC2)c(C)c1C (centres undefined) | inconclusive: 31.6 µM [fluorescent, side channel, partial curve] | – |
| CN(C)CCN(C(=O)c1ccc(Br)s1)c1nc2cc3c(cc2s1)OCCO3 | inconclusive: 39.8 µM [quencher, side channel, single point] | – |
| CC(NCC1COc2ccccc2O1)C1COc2ccccc2O1 (centres undefined) | – | inactive: 2.29% |
| COc1cc2c(C#N)c(N3CCN(c4ccccc4OC)CC3)nc(N)c2c(N)n1 | – | inactive: 9.97% |
| COc1cc(NC(=O)c2ccc3c(c2)C(=O)N(CCC(C)C)C3=O)c(C(=O)O)cc1OC | inconclusive: 79.4 µM [fluorescent, side channel, single point] | – |
| Oc1c(Cl)cc(Cl)cc1/C=C/c1ccc2cccc(O)c2n1 | inconclusive: 8.91 µM [fluorescent, side channel, full curve] | – |
| COc1ccc2nc3ccccc3nc2c1NC(=O)c1ccc(Cl)cc1Cl | inconclusive: 31.6 µM [fluorescent, side channel, partial curve] | – |
| COc1ccc(NC(=O)NNC(=O)c2ccc(-c3ccccc3)cc2)cc1 | inconclusive: 8.91 µM [fluorescent, side channel, single point] | – |
| O=C(CN1CCCc2ccccc21)N/N=C/c1ccc(O)cc1O | inconclusive: 35.5 µM [quencher, side channel, single point] | – |

2 entries from above, with tabs:
SMILES	Potency	activity change, negative = inhibition
Cc1ccc(NC(=O)CSc2nn3c(=O)c(C)nnc3s2)cc1Cl	–	inactive: 4.2%
CC(=O)Oc1ccc(N2C(=O)C3C4C=CC(CO)(O4)C3C2=O)cc1 (centres undefined)	–	inactive: -8.11%

Source: PubChem BioAssay AID2662 (National Center for Advancing Translational Sciences (NCATS), 2010)
